Assay results as given in the supplement of paper PMC12889115.
This is one part of the list. Values are raw readings; no control value is given beside them.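 In the initial screen, polymyxin B was used at a concentration that permeabilizes Salmonella's outer membrane but not its inner membrane. Maximum growth was set by DMSO wells with or without polymyxin B. Since plates varied, data were ranked per plate, and compounds giving the lowest OD600 advanced as hits.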

Tested on: Salmonella enterica serovar Typhimurium SL1344
Experiment: bacterial growth OD600 after 18 h with compound and polymyxin B; higher = more bacterial growth (less inhibition)
Details: 50 µM, Mueller-Hinton broth

**Q.** Which “bacterial growth OD600” value (polymyxin B 1 µg/mL) does the source give for `COc1ccc(CCN2CCC(CN(C)Cc3cc(OC)ccc3F)CC2)cc1` here?
**A.** 0.951

**Q.** `COc1ccc2c(c1)C=C(CNC1CCCc3nc(N(C)C)ncc31)CO2` (stereo unspecified) was tested. Which “bacterial growth OD600” value (polymyxin B 0.75 µg/mL) did it give?
**A.** 0.668

**Q.** `O=C(NCC1CCCN(C(=O)CCn2cnnn2)C1)c1ccc(-c2ccccc2)cc1` (stereo unspecified) was tested. Which “bacterial growth OD600” value (polymyxin B 1 µg/mL) did it give?
**A.** 0.891

**Q.** For `COc1cccc(-c2nc3ccc(C(=O)N(C)Cc4c(C)n[nH]c4C)cc3o2)c1`, which “bacterial growth OD600” value (polymyxin B 0.75 µg/mL) is on record?
**A.** 0.004

**Q.** How did the “bacterial growth OD600” value (polymyxin B 0.75 µg/mL) turn out when `CCC1C(=O)NCCN1Cc1ccc2c(c1)CN(Cc1ccc(OC)c(C)c1)CCO2` (stereo unspecified) was run?
**A.** 0.846

**Q.** `COC(=O)[C@@H](NC(=O)CCC1(Cc2ccc(OC)cc2F)CCC(=O)N1)C(C)C` (stereo partly specified) was tested. Which “bacterial growth OD600” value (polymyxin B 0.75 µg/mL) did it give?
**A.** 0.842

**Q.** `Cc1ccc(F)cc1CNC(=O)CCC1(Cc2ccc(Cl)cc2)CCC(=O)N1` (stereo unspecified) was tested. Which “bacterial growth OD600” value (polymyxin B 0.75 µg/mL) did it give?
**A.** 0.783

**Q.** How did the “bacterial growth OD600” value (polymyxin B 0.75 µg/mL) turn out when `CCOc1ccc2nc(N3CCC(NC(Cn4cccn4)c4ccccc4)CC3)nc(C)c2c1` (stereo unspecified) was run?
**A.** 0

**Q.** How did the “bacterial growth OD600” value (polymyxin B 0.75 µg/mL) turn out when `O=C(NC1CCCC1)c1ccc(N2CCC(NCc3cccc(F)c3F)CC2)cc1` was run?
**A.** 0.013

**Q.** With `COc1ccc(Cc2nc3ccc(C(=O)NCC4CCCCO4)cc3o2)cc1` (stereo unspecified) as the molecule, how does the “bacterial growth OD600” value (polymyxin B 0.75 µg/mL) read?
**A.** 0.546

**Q.** How did the “bacterial growth OD600” value (polymyxin B 1 µg/mL) turn out when `COc1ccc(CCN2CCC(CN(C)C(=O)c3ccc(Cl)cc3F)CC2)cc1` was run?
**A.** 0.834

**Q.** How did the “bacterial growth OD600” value (polymyxin B 0.75 µg/mL) turn out when `O=C(CCC1(Cc2cccc3ccccc23)CCC(=O)N1)NCCc1ccccn1` (stereo unspecified) was run?
**A.** 0.798

**Q.** How did the “bacterial growth OD600” value (polymyxin B 1 µg/mL) turn out when `COc1ccc(C(CC(=O)N(C)Cc2nc(C)c[nH]2)c2ccccc2)cc1` (stereo unspecified) was run?
**A.** 0.702

**Q.** How did the “bacterial growth OD600” value (polymyxin B 1 µg/mL) turn out when `Cc1ccccc1-c1cnnc(NC(C)Cc2ncccc2C)n1` (stereo unspecified) was run?
**A.** 0.862

**Q.** How did the “bacterial growth OD600” value (polymyxin B 0.75 µg/mL) turn out when `CC(Cc1ccsc1)NC(=O)C1CC(=O)c2sc(NC(=O)c3c(F)cccc3Cl)nc2C1` (stereo unspecified) was run?
**A.** 0.91

**Q.** Which “bacterial growth OD600” value (polymyxin B 1 µg/mL) does the source give for `CN(CC1CCCN(CCc2ccccc2F)C1)C(=O)Cn1cc2ccccc2n1` (stereo unspecified) here?
**A.** 0.888

**Q.** `CC(C)N(C)Cc1nnnn1CC(=O)N(C)CCc1nc2ccccc2[nH]1` was tested. Which “bacterial growth OD600” value (polymyxin B 0.75 µg/mL) did it give?
**A.** 0.801

**Q.** How did the “bacterial growth OD600” value (polymyxin B 1 µg/mL) turn out when `OCCC1CN(Cc2cccc3c2OCO3)CCN1Cc1ccccc1F` (stereo unspecified) was run?
**A.** 0.903

**Q.** How did the “bacterial growth OD600” value (polymyxin B 0.75 µg/mL) turn out when `C/C(=C\c1ccccc1)CNC1CCCc2nc(N3CCC(CO)CC3)ncc21` (stereo unspecified) was run?
**A.** 0.712

**Q.** With `Cc1nc(N(C)C2CCCCC2)ncc1C(C)NCc1nc2ccccc2[nH]1` (stereo unspecified) as the molecule, how does the “bacterial growth OD600” value (polymyxin B 0.75 µg/mL) read?
**A.** 0.029

**Q.** `O=C(c1ncccc1O)N1CCC(C2CCN(Cc3cccc(F)c3F)CC2)C1` (stereo unspecified) was tested. Which “bacterial growth OD600” value (polymyxin B 0.75 µg/mL) did it give?
**A.** 0.903

**Q.** Which “bacterial growth OD600” value (polymyxin B 1 µg/mL) does the source give for `CN(C)c1ncc2c(n1)CCCC2NC(=O)CCN1CCCCCC1=O` (stereo unspecified) here?
**A.** 0.891

**Q.** With `O=C(Nc1ccccc1Oc1cccnc1)C1CCCN1CC1CCCC1` (stereo unspecified) as the molecule, how does the “bacterial growth OD600” value (polymyxin B 0.75 µg/mL) read?
**A.** 0.009

**Q.** How did the “bacterial growth OD600” value (polymyxin B 1 µg/mL) turn out when `CCOC(=O)C1(Cc2cccc(OC)c2)CCN(Cc2ccc(C)o2)CC1` was run?
**A.** 0.937

**Q.** Which “bacterial growth OD600” value (polymyxin B 0.75 µg/mL) does the source give for `COCCN(C(=O)c1csc2nc(-c3ccc(OC)c(F)c3)cn12)C(C)C` here?
**A.** 0.793

**Q.** Which “bacterial growth OD600” value (polymyxin B 1 µg/mL) does the source give for `COc1ccc(OC2CCN(C(=O)C3CC3)CC2)c(C(=O)N2CC[C@@H]3CCCC[C@H]3C2)c1` here?
**A.** 0.736

**Q.** With `COc1ccc(C(=O)NC2CC2)c(OC2CCN(Cc3nc4ccccc4n3C)CC2)c1` as the molecule, how does the “bacterial growth OD600” value (polymyxin B 1 µg/mL) read?
**A.** 0.945

**Q.** Which “bacterial growth OD600” value (polymyxin B 1 µg/mL) does the source give for `Cn1cc(CN2CCCC2C(=O)Nc2ccc(-c3nc4ccccc4[nH]3)cc2)cn1` (stereo unspecified) here?
**A.** 1.01

**Q.** Which “bacterial growth OD600” value (polymyxin B 0.75 µg/mL) does the source give for `COCc1ccc(C(=O)NCc2c(C)ncc3c2CCN(C(=O)c2cc4ccccc4[nH]2)C3)o1` here?
**A.** 0.833

**Q.** How did the “bacterial growth OD600” value (polymyxin B 1 µg/mL) turn out when `O=C(NC1CC(=O)N(CCCc2ccccc2)C1)c1ccc2c(c1)OCO2` (stereo unspecified) was run?
**A.** 0.9

**Q.** For `CCC1(CCC(=O)NC(c2ccccc2)c2ccc(Cl)cc2)CCC(=O)N1` (stereo unspecified), which “bacterial growth OD600” value (polymyxin B 0.75 µg/mL) is on record?
**A.** 0.791
